# Experimental data as given in paper PMC9939006.
# By UniProt entry, the sequences of proteins in these tests, tags left out.
# UniProt Q6AI39: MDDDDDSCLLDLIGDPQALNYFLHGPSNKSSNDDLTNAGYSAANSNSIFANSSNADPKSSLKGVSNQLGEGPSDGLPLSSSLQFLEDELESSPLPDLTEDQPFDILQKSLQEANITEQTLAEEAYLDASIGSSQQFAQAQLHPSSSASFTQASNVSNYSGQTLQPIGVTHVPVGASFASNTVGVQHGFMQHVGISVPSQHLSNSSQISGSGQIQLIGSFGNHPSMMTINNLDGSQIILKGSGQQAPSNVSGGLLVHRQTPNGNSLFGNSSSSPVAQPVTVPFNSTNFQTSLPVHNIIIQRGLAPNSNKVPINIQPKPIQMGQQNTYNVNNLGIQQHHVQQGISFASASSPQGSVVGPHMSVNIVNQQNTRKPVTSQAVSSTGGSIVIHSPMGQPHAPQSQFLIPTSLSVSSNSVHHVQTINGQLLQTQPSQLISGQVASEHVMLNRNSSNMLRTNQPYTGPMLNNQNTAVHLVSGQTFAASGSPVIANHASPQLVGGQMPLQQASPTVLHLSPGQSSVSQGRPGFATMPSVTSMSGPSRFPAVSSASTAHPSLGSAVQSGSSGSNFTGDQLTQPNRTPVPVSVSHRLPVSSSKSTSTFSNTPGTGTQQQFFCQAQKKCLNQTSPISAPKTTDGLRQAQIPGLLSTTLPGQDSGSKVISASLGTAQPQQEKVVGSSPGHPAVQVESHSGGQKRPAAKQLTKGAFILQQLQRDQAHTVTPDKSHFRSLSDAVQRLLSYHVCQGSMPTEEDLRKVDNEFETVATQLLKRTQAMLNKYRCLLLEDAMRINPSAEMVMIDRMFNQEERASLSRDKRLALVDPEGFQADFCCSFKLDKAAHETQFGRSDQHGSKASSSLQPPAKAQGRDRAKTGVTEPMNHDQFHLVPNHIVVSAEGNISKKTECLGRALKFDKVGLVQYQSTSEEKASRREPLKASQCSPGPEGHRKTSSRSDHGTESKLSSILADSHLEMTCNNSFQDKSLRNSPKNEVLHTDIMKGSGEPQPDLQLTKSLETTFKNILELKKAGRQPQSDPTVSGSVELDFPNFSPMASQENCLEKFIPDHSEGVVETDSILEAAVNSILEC
# Assays:
# [1] = biological target: B-cell CLL/lymphoma 7 protein family member C (BCL7C) (human (endogenous in SW-13)) (UniProt Q8WUZ0); test: co-IP; immunoprecipitation (anti-V5, BCL7B, BCL7C, BAF53a, BAF155, GLTSCR1L, BAF45b or IgG) from iBRG1 or i∆HSA cells after 24 h doxycycline; cells crosslinked with 1% formaldehyde, high-salt extraction (420 mM NaCl), nuclease, diluted 1:5 in IP buffer (100 mM NaCl, 0.1% NP-40), Protein G Dynabeads, Western blot
# [2] = biological target: i∆HSA (inducible BRG1 with the HSA domain deleted, with C-terminal V5 tag) (human) (UniProt P51532); test: as above
binding [1],binding [2],Substance
no binding,,"i∆HSA (inducible BRG1 with the HSA domain deleted, with C-terminal V5 tag) (from UniProt P51532) (enzyme)"
,binds,GLTSCR1L (from UniProt Q6AI39 1-1079)

# No constants are given. Whether binding was seen depends on the method and setting. In cells and extracts the contact can be indirect. For some assays here: Binding calls can cover weak binding; strength is not graded here.
